In this assay the target is Strep-tagged TTP (SPR phage). The experiment in a line: pull-down; Strep pull-down on Strep-Tactin resin; 50 µg DSR2 pre-mixed with Strep-TTP (1:1) or with MBP-DSAD1 at the indicated ratios for 1 h on ice, then the third protein added; 25 mM Tris pH 7.5, 100 mM NaCl, 1 mM DTT; SDS-PAGE with Coomassie; both purified.

Results are given in words; binding and its absence hold for the method and conditions named. Binding can be weak; no strength is given.

B1: DSR2 from Bacillus subtilis 29 R, wild type (enzyme, UniProt P0DXN8 1-1005, looked up)
chain: MVKVDLESKRYGEKLKEVFLMLDNNVVECIKEITESSRNGKLVFFVGAGVSTLSDYPQWWRLVDKYHEELYGSPKKGNYSSDEYLRIPQIFYNVKGEMAFDGILKDFFQVDKPTNPIHDKILAMNPAHVITTNYDNLIDTACWKRGKYFSVISAEEDVANATSSRYLLKVHGDFRKGFKGENVVLKEDDYLNYDQNYPLISNLMKTIIATHTIVFIGYGLGDYNINMLLNWVRKLQKDSFHKPFFIRTDPSPIENETLIYYENKGLRIIDAASLIDSNEYDYLERYSAVMDLLIESQENKFITKDDEVIDYIYGKISPLFALQYIRKIDLKHVFEYDYHFEVNGTVVRHKNKGFGYMERFFELKESCDERSKLSKKQYERFNALFNFFEKNGVICMAKDAGTLNTSIEINSLAYHGKYDVMKKFIEEQSVSIEDDYKKAFFLACLGRWEESYDLYSNIILNSIDESNGCVYYLSQINRYRIYQSITQAVTQFNGLGLLTFGRHYKPFTDEFLARIEREMTNFNIDDLFNGMPFEFQKKYKILEFLSDNQFLYDDTVKLFELTNKVRSEMSEGSYSFGMSSDIVVLLRLYDNLRFLYENCLWSVSFHEFHQYIRNSMSLLIEKAEYERTRDIDELGFSFFGKKSGFFMEYYDFVNISRHFKIDDIKNLERSCSIDKIRFGEQEKIEEYLVGIAEEITKQFSANGMNVVFYTQFISEAKAALYFAKYVKLSEEGLGKIVKALLFYFPERDLDIGKRYVWLERLTKCNELPKSIISIIDDFLVLQAEKHIDQNYSEVSSNGLYSRDYGALIKHFEKNFISKRLSEITLCLTQDKQKQIDFLFKLLPLLSTNAKSHLLSFKSVENINDLMNGIRIGLIDEFTPEHEELIIEYLETRKVNYIVEKEKGIQTFSSNDYMSTFGIWYFLEEINNSKMEEFIGMDDQYDFFVDPENFDYKKFIPSWLKNYNDKLLGKIAGNKHMKHHVIEVLKERVKNSNDKRYLEILMNYFI
notes: DSR2, Sir2 domain-containing NADase, Bacillus subtilis 29 R, WP_029317421, full length (domains described over residues 1-1005); Cloned into pRSF-32M or pET-32M.3C (both add N-terminal thioredoxin and 6xHis); Crosslinked with BS3 for part of the cryo-EM data; also called WT DSR2; wild-type (WT) DSR2; source: E. coli BL21 (DE3), purified (Ni-NTA, size exclusion); for the DSR2-DSAD1 complex …
Consider B1, for which the binding result was “binds”.

Source of the values: publication PMC11263360, “The structural basis of the activation and inhibition of DSR2 NADase by phage proteins” (Nature Communications, 2024).
